Data as given in PubChem BioAssay AID493246 (Drosophila RNAi Screening Center, 2011)

- Test: 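Identify essential fly genes by loss of cell viability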 (primary screen)
- Cells: Drosophila Kc and S2R+ cells
- Knock-down reagent: long dsRNA against Drosophila genes
- Read-out: 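Raw, unnormalised count of remaining cells in each well; per-plate z-scores of cell number underlie the calls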
- Direction: Kc cell number and S2R+ cell number: higher = more cells remaining
- Hit rule: 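Active when the per-plate z-score of cell number is 3 or more in the direction of fewer cells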
The screen tested about 21,000 reagents; below is a random part of those that have a named target and a result. Over the whole deposit, 429 (2%) are marked active. 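Values are raw and not normalised between plates; calls rest on per-plate z-scores that were not deposited.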 Names joined by + are all predicted targets of the reagent. The record does not give: the amount of reagent, the time to read-out.

| predicted target | DRSC id | Kc cell number, rep 1 | Kc cell number, rep 2 | S2R+ cell number, rep 1 | S2R+ cell number, rep 2 | Call |
| --- | --- | --- | --- | --- | --- | --- |
| CG5281 | DRSC15761 | 1.36e6 | 1.38e6 | 1.16e6 | 1.22e6 | inactive |
| CG32206 | DRSC09602 | 1.42e6 | 1.42e6 | 9.67e5 | 1.11e6 | inactive |
| CG32206 | DRSC10094 | 1.41e6 | 1.51e6 | 1.29e6 | 1.34e6 | inactive |
| CG32206 | DRSC10095 | 1.37e6 | 1.46e6 | 1.30e6 | 1.33e6 | inactive |
| CG32206 | DRSC10096 | 1.41e6 | 1.42e6 | 1.33e6 | 1.38e6 | inactive |
| CG32206 | DRSC11080 | 1.43e6 | 1.46e6 | 1.25e6 | 1.37e6 | inactive |
| CG4393 | DRSC15573 | 1.67e6 | 1.68e6 | 1.10e6 | 1.27e6 | inactive |
| wdn | DRSC17095 | 5.12e5 | – | 8.51e5 | – | inactive |
| hec | DRSC19895 | 1.67e6 | 1.58e6 | 1.05e6 | 1.14e6 | inactive |
| CR42548 | DRSC09514 | 1.44e6 | 1.55e6 | 1.12e6 | 1.30e6 | inactive |
| mmd | DRSC19672 | 1.75e6 | 1.81e6 | 1.04e6 | 1.20e6 | inactive |
| mmd | DRSC19673 | 1.66e6 | 1.72e6 | 1.11e6 | 1.24e6 | inactive |
| mmd | DRSC20161 | 1.61e6 | 1.60e6 | 1.10e6 | 1.24e6 | inactive |
| CG32812 | DRSC18478 | 1.72e6 | 1.78e6 | 1.19e6 | 1.26e6 | inactive |
| His4:CG33883 + His4:CG33889 + His4:CG33899 + 20 more | DRSC21268 | 1.37e6 | 1.41e6 | 8.54e5 | 8.98e5 | inactive |
| CG34030 | DRSC08866 | 1.48e6 | 1.74e6 | 1.15e6 | 1.29e6 | inactive |
| CG31910 + snoRNA:Me28S-G2743 (retired record) | DRSC00946 | 1.58e6 | 1.55e6 | 1.08e6 | 1.22e6 | inactive |
| CG5235 | DRSC10494 | 1.30e6 | 1.43e6 | 1.27e6 | 1.35e6 | inactive |
| nemy | DRSC05357 | 1.51e6 | 1.53e6 | 1.02e6 | 1.25e6 | inactive |
| nemy | DRSC07262 | 1.62e6 | 1.72e6 | 9.91e5 | 1.14e6 | inactive |
| nis | DRSC00290 | 1.54e6 | 1.52e6 | 9.99e5 | 1.06e6 | inactive |
| CG5886 | DRSC15908 | 5.11e5 | – | 7.42e5 | – | inactive |
| CG15564 | DRSC15102 | 1.61e6 | 1.65e6 | 1.06e6 | 1.16e6 | inactive |
| brat | DRSC03497 | 1.41e6 | 1.45e6 | 1.20e6 | 1.22e6 | inactive |
| IPIP | DRSC02164 | 1.33e6 | 1.37e6 | 6.52e5 | 8.93e5 | inactive |
| CG14370 | DRSC14832 | 1.37e6 | 1.36e6 | 1.14e6 | 1.23e6 | inactive |
| Odc2 | DRSC07483 | 1.46e6 | 1.52e6 | 1.25e6 | 1.34e6 | inactive |
| eIF4H1 | DRSC20276 | 1.47e6 | 1.47e6 | 1.08e6 | 1.21e6 | inactive |
| CG15022 | DRSC08476 | 1.67e6 | 1.71e6 | 9.98e5 | 1.07e6 | inactive |
| coil | DRSC07242 | 1.31e6 | 1.34e6 | 1.14e6 | 1.21e6 | inactive |
| PsGEF | DRSC18596 | 1.48e6 | 1.49e6 | 8.75e5 | 1.01e6 | inactive |
| Smyd3 | DRSC17744 | 1.67e6 | 1.72e6 | 1.03e6 | 1.18e6 | inactive |
| CG31058 (retired record) | DRSC15840 | 1.50e6 | 1.61e6 | 6.78e5 | 7.74e5 | active |
| Ir67a | DRSC09897 | 1.45e6 | 1.45e6 | 1.39e6 | 1.52e6 | inactive |
| CG4653 | DRSC19909 | 1.78e6 | 1.68e6 | 1.13e6 | 1.20e6 | inactive |
| CG43689 | DRSC18383 | 1.13e6 | 1.27e6 | 5.85e5 | 6.64e5 | active |
| png | DRSC18582 | 1.49e6 | 1.50e6 | 9.68e5 | 1.07e6 | inactive |
| CG18371 | DRSC06733 | 1.58e6 | 1.64e6 | 1.30e6 | 1.47e6 | inactive |
| CG12024 | DRSC08229 | 1.43e6 | 1.49e6 | 1.16e6 | 1.20e6 | inactive |
| Pex11c | DRSC14677 | 1.41e6 | 1.59e6 | 1.03e6 | 1.18e6 | inactive |
| CG5984 | DRSC15930 | 1.48e6 | 1.53e6 | 1.11e6 | 1.21e6 | inactive |
| l(2)09851 | DRSC04858 | 1.49e6 | 1.50e6 | 1.28e6 | 1.31e6 | inactive |
| Oamb | DRSC13433 | 1.68e6 | 1.70e6 | 1.07e6 | 1.16e6 | inactive |
| Oamb | DRSC15120 | 1.34e6 | 1.40e6 | 8.90e5 | 1.04e6 | inactive |
| Oamb | DRSC16763 | 1.38e6 | 1.50e6 | 1.01e6 | 1.06e6 | inactive |
| vsg | DRSC10219 | 1.38e6 | 1.28e6 | 1.22e6 | 1.27e6 | inactive |
| HDAC11 | DRSC14280 | 1.48e6 | 1.40e6 | 1.03e6 | 1.05e6 | inactive |
| htl | DRSC16968 | 1.55e6 | 1.58e6 | 1.26e6 | 1.30e6 | inactive |
| mgr | DRSC16099 | 1.47e6 | 1.44e6 | 1.27e6 | 1.27e6 | inactive |
| trc | DRSC11406 | 1.55e6 | 2.06e6 | 1.25e6 | 1.43e6 | inactive |
| psh | DRSC19990 | 1.63e6 | 1.66e6 | 1.22e6 | 1.35e6 | inactive |
| Ugt37A1 | DRSC02114 | 1.75e6 | 1.77e6 | 1.25e6 | 2.29e5 | inactive |
| CG13992 | DRSC02324 | 1.47e6 | 1.40e6 | 1.12e6 | 1.28e6 | inactive |
| vret | DRSC15640 | 1.46e6 | 1.52e6 | 1.20e6 | 1.28e6 | inactive |
| Uqcc1 + CG9948 | DRSC09690 | 1.24e6 | 1.21e6 | 1.24e6 | 1.25e6 | inactive |
| CG7987 | DRSC16357 | 1.58e6 | 1.68e6 | 1.10e6 | 1.17e6 | inactive |
| CG12521 | DRSC09893 | 1.33e6 | 1.44e6 | 1.18e6 | 1.23e6 | inactive |
| CG30031 + deltaTry + CG30025 + 1 more | DRSC21262 | 1.52e6 | 1.56e6 | 1.18e6 | 1.26e6 | inactive |
| bocks | DRSC16489 | 1.83e6 | 1.97e6 | 1.45e6 | 1.59e6 | inactive |

5 entries from above, reformatted:
{"predicted target":"mmd","DRSC id":"DRSC20161","Kc cell number, rep 1":1.61e6,"Kc cell number, rep 2":1.60e6,"S2R+ cell number, rep 1":1.10e6,"S2R+ cell number, rep 2":1.24e6,"Call":"inactive"}
{"predicted target":"CG32812","DRSC id":"DRSC18478","Kc cell number, rep 1":1.72e6,"Kc cell number, rep 2":1.78e6,"S2R+ cell number, rep 1":1.19e6,"S2R+ cell number, rep 2":1.26e6,"Call":"inactive"}
{"predicted target":"His4:CG33883 + His4:CG33889 + His4:CG33899 + 20 more","DRSC id":"DRSC21268","Kc cell number, rep 1":1.37e6,"Kc cell number, rep 2":1.41e6,"S2R+ cell number, rep 1":8.54e5,"S2R+ cell number, rep 2":8.98e5,"Call":"inactive"}
{"predicted target":"CG34030","DRSC id":"DRSC08866","Kc cell number, rep 1":1.48e6,"Kc cell number, rep 2":1.74e6,"S2R+ cell number, rep 1":1.15e6,"S2R+ cell number, rep 2":1.29e6,"Call":"inactive"}
{"predicted target":"CG31910 + snoRNA:Me28S-G2743 (retired record)","DRSC id":"DRSC00946","Kc cell number, rep 1":1.58e6,"Kc cell number, rep 2":1.55e6,"S2R+ cell number, rep 1":1.08e6,"S2R+ cell number, rep 2":1.22e6,"Call":"inactive"}
